This is one part of the list.
compound: CNc1nc(-c2ccc3c(N)n[nH]c3c2)cc(N2C[C@@H](C(=O)NC3CCCCC3)CC[C@H]2C)n1; experiment: log2 fold change, soluble protein after heating vs DMSO (PISA); higher = thermal stabilisation; K562 cells, 10 uM, 30 min; active = over 0.2 and 3.5 SD of the protein, either way, in both replicates (recomputed)
Procedure, shortened: (§1)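 Values are thermal stability changes relative to control samples and are taken from duplicates. They are stated as log2 fold changes. Before quantification by TMTpro 16plex LC-MS/MS with equalised channel sums, K562 cells at 2×10^6 cells/mL were treated with 10 μM compound for 30 min, heated in aliquots for 3 min across 48°C-58°C, pooled, extracted in PBS with 0.5% NP-40 at 4°C, and centrifuged at 21,000xg for 90 min to give the soluble supernatant.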

Chains of the proteins cited; added tags and fusions are not shown. Lines headed by an entry give the natural chain unless they say otherwise; changes in a name come on top.
UniProt Q9Y2G5: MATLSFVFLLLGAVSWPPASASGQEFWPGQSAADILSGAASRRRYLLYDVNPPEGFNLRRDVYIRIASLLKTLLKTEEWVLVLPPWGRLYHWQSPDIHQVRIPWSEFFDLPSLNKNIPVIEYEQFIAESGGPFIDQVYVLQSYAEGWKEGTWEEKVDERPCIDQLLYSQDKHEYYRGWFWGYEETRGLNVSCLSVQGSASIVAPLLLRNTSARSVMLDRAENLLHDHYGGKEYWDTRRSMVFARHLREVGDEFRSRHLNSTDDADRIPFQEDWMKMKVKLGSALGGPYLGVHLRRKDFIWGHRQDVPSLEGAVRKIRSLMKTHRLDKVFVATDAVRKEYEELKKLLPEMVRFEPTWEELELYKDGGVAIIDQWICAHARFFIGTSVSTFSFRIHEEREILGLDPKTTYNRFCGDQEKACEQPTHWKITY
UniProt P62937, whole entry, looked up: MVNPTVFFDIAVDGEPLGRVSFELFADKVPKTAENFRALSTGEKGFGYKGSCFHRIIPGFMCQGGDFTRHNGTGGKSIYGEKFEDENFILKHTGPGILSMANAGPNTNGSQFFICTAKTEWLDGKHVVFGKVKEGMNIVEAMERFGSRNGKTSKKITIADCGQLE
UniProt Q9NVS9: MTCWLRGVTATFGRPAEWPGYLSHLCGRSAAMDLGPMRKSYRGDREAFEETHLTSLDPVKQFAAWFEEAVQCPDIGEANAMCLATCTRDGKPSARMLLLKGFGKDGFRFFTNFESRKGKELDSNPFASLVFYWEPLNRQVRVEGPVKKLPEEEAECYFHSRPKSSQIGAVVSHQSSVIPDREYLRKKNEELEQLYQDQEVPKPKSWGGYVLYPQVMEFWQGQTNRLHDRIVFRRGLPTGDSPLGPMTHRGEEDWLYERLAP
UniProt Q9BY77: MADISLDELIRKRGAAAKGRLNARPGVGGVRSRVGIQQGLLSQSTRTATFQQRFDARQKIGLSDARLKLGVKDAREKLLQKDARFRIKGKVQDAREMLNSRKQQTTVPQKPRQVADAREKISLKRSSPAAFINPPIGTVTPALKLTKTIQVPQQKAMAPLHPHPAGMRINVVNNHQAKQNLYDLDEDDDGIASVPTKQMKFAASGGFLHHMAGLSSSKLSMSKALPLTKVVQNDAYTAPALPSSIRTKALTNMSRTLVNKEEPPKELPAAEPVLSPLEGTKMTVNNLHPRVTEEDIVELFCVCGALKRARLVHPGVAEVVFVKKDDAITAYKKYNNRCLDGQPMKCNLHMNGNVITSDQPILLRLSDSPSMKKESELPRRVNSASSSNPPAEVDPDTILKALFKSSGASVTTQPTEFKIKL
UniProt Q6P1K2: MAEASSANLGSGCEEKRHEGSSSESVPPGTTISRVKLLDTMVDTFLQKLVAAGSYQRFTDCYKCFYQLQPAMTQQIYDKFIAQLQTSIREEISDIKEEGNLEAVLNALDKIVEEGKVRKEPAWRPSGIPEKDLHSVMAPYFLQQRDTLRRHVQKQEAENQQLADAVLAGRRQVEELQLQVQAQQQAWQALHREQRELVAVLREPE
UniProt Q9UHN1: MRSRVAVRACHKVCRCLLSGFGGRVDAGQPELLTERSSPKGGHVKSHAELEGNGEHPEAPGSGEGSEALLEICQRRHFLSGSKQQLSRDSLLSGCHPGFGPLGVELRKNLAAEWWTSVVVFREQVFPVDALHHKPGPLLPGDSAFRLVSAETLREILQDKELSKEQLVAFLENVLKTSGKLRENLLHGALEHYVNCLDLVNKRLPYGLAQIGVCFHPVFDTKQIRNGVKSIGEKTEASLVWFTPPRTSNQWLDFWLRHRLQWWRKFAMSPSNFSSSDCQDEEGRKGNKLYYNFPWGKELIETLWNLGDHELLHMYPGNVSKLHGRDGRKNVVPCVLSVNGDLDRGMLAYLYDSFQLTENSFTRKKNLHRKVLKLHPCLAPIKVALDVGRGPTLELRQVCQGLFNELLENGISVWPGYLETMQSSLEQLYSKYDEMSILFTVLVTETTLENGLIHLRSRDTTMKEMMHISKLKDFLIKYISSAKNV
UniProt Q9NRX1: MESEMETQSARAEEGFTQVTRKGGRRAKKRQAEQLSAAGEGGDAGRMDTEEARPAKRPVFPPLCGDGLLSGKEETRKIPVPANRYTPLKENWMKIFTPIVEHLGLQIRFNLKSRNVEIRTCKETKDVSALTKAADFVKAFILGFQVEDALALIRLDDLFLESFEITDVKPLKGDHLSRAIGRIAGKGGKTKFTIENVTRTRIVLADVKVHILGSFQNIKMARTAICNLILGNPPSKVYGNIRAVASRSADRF
UniProt Q8WZA1: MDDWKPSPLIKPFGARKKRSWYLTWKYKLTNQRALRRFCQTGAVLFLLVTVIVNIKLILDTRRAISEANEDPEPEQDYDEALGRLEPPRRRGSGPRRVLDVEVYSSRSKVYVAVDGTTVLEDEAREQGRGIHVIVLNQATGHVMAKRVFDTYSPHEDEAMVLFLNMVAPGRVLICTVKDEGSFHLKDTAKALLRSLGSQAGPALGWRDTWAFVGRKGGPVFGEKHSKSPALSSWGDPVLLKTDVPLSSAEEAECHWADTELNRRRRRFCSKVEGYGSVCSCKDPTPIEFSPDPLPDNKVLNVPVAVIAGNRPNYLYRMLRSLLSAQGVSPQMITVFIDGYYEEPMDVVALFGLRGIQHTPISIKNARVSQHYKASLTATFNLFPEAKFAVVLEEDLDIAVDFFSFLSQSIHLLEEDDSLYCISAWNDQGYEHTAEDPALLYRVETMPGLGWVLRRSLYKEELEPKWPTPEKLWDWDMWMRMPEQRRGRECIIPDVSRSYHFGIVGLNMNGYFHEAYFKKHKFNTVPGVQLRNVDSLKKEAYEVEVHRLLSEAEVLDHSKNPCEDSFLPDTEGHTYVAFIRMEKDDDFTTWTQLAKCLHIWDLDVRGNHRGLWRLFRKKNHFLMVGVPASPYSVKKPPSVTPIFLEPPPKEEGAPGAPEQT
UniProt O75817: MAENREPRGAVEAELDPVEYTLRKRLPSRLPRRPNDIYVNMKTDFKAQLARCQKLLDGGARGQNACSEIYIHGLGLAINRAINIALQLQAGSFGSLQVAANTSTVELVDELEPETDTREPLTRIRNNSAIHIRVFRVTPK
UniProt Q06203, whole entry, looked up: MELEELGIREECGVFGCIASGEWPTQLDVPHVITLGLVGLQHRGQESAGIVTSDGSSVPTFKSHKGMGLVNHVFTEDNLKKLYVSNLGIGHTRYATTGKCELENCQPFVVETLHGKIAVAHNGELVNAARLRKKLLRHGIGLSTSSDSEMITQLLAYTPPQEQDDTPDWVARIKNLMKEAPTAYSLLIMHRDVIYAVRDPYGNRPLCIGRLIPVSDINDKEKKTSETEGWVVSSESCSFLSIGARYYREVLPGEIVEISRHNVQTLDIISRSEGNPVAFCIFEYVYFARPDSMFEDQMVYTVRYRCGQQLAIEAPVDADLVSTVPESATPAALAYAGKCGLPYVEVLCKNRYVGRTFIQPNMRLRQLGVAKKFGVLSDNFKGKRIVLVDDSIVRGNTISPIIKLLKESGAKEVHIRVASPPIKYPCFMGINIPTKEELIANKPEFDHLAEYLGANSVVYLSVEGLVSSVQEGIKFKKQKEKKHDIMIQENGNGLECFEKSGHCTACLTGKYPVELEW
UniProt Q9Y2S7: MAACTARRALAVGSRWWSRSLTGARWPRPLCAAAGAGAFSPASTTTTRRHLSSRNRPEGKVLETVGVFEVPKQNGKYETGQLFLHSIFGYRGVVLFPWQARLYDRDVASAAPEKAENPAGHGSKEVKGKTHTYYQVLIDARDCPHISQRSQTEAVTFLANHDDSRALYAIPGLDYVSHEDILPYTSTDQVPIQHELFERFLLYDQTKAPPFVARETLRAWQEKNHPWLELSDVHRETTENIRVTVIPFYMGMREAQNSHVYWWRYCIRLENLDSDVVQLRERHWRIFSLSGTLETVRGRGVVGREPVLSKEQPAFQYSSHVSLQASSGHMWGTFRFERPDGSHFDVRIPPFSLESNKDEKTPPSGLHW
UniProt Q96CD2: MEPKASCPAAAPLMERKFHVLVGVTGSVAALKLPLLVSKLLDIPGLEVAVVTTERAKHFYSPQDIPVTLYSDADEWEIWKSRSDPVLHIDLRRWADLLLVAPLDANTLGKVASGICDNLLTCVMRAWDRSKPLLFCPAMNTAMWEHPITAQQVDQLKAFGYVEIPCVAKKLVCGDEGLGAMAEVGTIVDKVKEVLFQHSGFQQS
UniProt Q15181: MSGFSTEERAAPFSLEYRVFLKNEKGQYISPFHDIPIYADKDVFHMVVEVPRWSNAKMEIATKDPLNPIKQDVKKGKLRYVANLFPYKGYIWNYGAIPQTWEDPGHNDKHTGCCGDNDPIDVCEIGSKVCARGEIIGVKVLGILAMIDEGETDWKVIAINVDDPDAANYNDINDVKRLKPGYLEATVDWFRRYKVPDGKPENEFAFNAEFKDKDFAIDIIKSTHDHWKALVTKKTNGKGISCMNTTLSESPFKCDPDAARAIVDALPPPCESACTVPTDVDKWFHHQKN
UniProt A5A3E0, whole entry, looked up: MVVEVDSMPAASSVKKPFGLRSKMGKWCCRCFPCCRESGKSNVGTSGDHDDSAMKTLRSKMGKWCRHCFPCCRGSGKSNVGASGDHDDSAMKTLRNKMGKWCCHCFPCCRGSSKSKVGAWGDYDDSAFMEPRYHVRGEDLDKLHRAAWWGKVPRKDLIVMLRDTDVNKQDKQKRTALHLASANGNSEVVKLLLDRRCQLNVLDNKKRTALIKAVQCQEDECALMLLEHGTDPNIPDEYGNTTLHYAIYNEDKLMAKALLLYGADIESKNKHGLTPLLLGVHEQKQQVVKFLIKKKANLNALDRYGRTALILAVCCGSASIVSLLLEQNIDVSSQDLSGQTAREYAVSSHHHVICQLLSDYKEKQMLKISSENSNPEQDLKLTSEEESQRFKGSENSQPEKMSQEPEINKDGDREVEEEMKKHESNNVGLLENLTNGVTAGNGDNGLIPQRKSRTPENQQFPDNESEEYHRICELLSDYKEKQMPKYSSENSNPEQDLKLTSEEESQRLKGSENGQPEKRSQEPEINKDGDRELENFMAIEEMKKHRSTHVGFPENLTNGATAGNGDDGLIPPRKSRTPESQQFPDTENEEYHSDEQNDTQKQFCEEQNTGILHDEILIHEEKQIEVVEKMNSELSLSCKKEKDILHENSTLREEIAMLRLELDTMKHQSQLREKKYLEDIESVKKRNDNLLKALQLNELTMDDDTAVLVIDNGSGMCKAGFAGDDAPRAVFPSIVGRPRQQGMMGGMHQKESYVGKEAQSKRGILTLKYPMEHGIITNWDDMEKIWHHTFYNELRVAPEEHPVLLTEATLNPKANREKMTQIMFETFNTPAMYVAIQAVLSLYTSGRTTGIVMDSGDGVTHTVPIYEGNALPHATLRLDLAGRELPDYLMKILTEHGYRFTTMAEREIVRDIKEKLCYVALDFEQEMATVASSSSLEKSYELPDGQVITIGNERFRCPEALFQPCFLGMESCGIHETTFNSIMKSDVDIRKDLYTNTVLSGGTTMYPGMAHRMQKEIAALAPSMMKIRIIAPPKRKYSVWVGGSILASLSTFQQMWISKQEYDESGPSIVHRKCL
UniProt P14859: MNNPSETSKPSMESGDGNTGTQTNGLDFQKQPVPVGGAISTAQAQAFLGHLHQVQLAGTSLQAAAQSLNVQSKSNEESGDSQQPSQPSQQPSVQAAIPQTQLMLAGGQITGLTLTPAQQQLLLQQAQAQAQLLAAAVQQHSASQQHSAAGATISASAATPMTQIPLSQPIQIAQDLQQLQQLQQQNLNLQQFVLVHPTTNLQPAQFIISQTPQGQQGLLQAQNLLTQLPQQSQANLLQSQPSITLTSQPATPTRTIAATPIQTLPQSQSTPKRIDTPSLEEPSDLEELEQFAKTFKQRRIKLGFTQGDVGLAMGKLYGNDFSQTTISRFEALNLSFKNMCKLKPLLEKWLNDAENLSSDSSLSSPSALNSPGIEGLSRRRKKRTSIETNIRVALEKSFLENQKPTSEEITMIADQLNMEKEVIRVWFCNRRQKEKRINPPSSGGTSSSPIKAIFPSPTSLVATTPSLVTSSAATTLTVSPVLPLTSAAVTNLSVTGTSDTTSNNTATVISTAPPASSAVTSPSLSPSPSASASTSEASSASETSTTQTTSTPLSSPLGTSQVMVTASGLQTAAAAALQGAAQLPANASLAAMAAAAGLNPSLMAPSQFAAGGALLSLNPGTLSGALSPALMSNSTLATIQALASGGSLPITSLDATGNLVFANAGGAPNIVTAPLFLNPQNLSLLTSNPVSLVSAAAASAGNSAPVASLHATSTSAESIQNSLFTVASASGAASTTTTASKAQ
UniProt Q8N490: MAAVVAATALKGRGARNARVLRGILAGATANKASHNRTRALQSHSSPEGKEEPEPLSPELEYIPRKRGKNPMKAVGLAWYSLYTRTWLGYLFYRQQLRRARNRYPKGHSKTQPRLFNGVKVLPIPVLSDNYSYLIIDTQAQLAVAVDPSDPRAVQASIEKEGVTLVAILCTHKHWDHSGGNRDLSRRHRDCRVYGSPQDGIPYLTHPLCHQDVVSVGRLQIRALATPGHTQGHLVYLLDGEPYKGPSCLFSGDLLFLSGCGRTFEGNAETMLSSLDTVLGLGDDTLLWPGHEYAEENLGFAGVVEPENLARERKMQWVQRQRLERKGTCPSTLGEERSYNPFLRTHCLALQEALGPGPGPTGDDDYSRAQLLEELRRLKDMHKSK

log2 fold change, inactive:
POFUT2 (UniProt Q9Y2G5) -0.003
PPIA (UniProt P62937) 0.004
POLR3C (UniProt Q9BUI4) -0.073
POFUT1 (UniProt Q9H488) -0.042
PPM1B (UniProt O75688) -0.015
PPIP5K2 (UniProt O43314) -0.05
PNPO (UniProt Q9NVS9) -0.01
POLDIP3 (UniProt Q9BY77) 0.002
PPFIA1 (UniProt Q13136) 0.002
PMF1 (UniProt Q6P1K2) 0.012
POLG2 (UniProt Q9UHN1) -0.036
PLOD3 (UniProt O60568) 0.026
PLXNB2 (UniProt O15031) 0
PNO1 (UniProt Q9NRX1) 0.095
PLIN3 (UniProt O60664) -0.052
POMGNT1 isoform 2 (UniProt Q8WZA1) -0.057
POP7 (UniProt O75817) -0.016
PPAT (UniProt Q06203) -0.032
PPAN isoform 3 (UniProt Q9NQ55) 0.148
PPA2 (UniProt Q9H2U2) -0.075
POP5 (UniProt Q969H6) 0.001
POSTN (UniProt Q15063) -0.107
POLDIP2 (UniProt Q9Y2S7) -0.01
PPCDC (UniProt Q96CD2) -0.045
POLR2H (UniProt P52434) 0.04
POGLUT2 (UniProt Q6UW63) -0.027
POLR3F (UniProt Q9H1D9) -0.033
PPA1 (UniProt Q15181) 0
POTEF (UniProt A5A3E0) -0.055
POU2F1 isoform 6 (UniProt P14859) 0.063
PNKD isoform 2 (UniProt Q8N490) -0.156
PPIF (UniProt P30405) -0.003
PPIE (UniProt Q9UNP9) -0.021

compound: COC(=O)N[C@@H](C)CNc1nccc(-c2cn(C(C)C)nc2-c2cc(Cl)cc(NS(C)(=O)=O)c2F)n1 [encorafenib]; experiment: as above
Procedure, shortened: as §1

log2 fold change, inactive:
POFUT2 (UniProt Q9Y2G5) 0.08
PPIA (UniProt P62937) -0.047
POLR3C (UniProt Q9BUI4) -0.06
POFUT1 (UniProt Q9H488) -0.012
PPM1B (UniProt O75688) -0.01
PPIP5K2 (UniProt O43314) -0.02
PNPO (UniProt Q9NVS9) -0.033
POLDIP3 (UniProt Q9BY77) 0.011
PPFIA1 (UniProt Q13136) 0.053
PMF1 (UniProt Q6P1K2) -0.008
POLG2 (UniProt Q9UHN1) -0.027
PLOD3 (UniProt O60568) 0.061
PLXNB2 (UniProt O15031) -0.001
PNO1 (UniProt Q9NRX1) 0.163
PLIN3 (UniProt O60664) -0.004
POMGNT1 isoform 2 (UniProt Q8WZA1) 0.05
POP7 (UniProt O75817) 0.197
PPAT (UniProt Q06203) 0.001
PPAN isoform 3 (UniProt Q9NQ55) 0.19
PPA2 (UniProt Q9H2U2) 0
POP5 (UniProt Q969H6) 0.072
POSTN (UniProt Q15063) -0.009
POLDIP2 (UniProt Q9Y2S7) -0.015
PPCDC (UniProt Q96CD2) 0.002
POLR2H (UniProt P52434) -0.016
POGLUT2 (UniProt Q6UW63) 0.058
POLR3F (UniProt Q9H1D9) 0.023
PPA1 (UniProt Q15181) 0.008
POTEF (UniProt A5A3E0) -0.006
POU2F1 isoform 6 (UniProt P14859) 0.074
PNKD isoform 2 (UniProt Q8N490) 0.017
PPIF (UniProt P30405) -0.024
PPIE (UniProt Q9UNP9) 0.062

compound: COC(=O)[C@H](CCSC)NC(=O)C1=C(C=C(C=C1)NC[C@H](CS)N)C2=CC=CC=C2; experiment: as above
Procedure, shortened: as §1

log2 fold change, inactive:
POFUT2 (UniProt Q9Y2G5) -0.016
PPIA (UniProt P62937) 0.023
POLR3C (UniProt Q9BUI4) -0.016
POFUT1 (UniProt Q9H488) 0
PPM1B (UniProt O75688) -0.029
PPIP5K2 (UniProt O43314) 0.028
PNPO (UniProt Q9NVS9) 0.057
POLDIP3 (UniProt Q9BY77) 0.061
PPFIA1 (UniProt Q13136) -0.005
PMF1 (UniProt Q6P1K2) 0.036
POLG2 (UniProt Q9UHN1) 0.038
PLOD3 (UniProt O60568) -0.024
PLXNB2 (UniProt O15031) -0.017
PNO1 (UniProt Q9NRX1) -0.074
PLIN3 (UniProt O60664) 0.025
POMGNT1 isoform 2 (UniProt Q8WZA1) -0.003
POP7 (UniProt O75817) 0.027
PPAT (UniProt Q06203) -0.007
PPAN isoform 3 (UniProt Q9NQ55) -0.083
PPA2 (UniProt Q9H2U2) 0.002
POP5 (UniProt Q969H6) 0.023
POSTN (UniProt Q15063) 0.006
POLDIP2 (UniProt Q9Y2S7) 0
PPCDC (UniProt Q96CD2) -0.019
POLR2H (UniProt P52434) -0.089
POGLUT2 (UniProt Q6UW63) -0.035
POLR3F (UniProt Q9H1D9) 0.018
PPA1 (UniProt Q15181) -0.003
POTEF (UniProt A5A3E0) 0.065
POU2F1 isoform 6 (UniProt P14859) -0.009
PNKD isoform 2 (UniProt Q8N490) -0.003
PPIF (UniProt P30405) 0.018
PPIE (UniProt Q9UNP9) 0.073

From the supplement of paper PMC10849652
